# Measurements as given in the supplement of paper PMC8728848.
# This is one part of the list.
# How the values were obtained:
# Experiment in all cases: glycan array binding signal (z-score within array); higher = stronger binding
# Conditions in all cases: glycan notation: IUPAC condensed, linker removed
# [1] = target: GlcNAc(b1-2)Gal(b1-3)GalNAc
# Method in brief: (§1)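 Glycan array binding is given as a within-array Z-score, which can be read as non-binding when negative. The arrays, 3228 of them, came from the Consortium for Functional Glycomics database and were retained only where the protein sequence was available. Z-scores were averaged across arrays of the same protein sequence at different concentrations or buffers and across linkers.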
# [2] = target: GlcNAc(b1-2)Man(a1-3)[GlcNAc(b1-2)Man(a1-6)]Man(b1-4)GlcNAc(b1-4)GlcNAc
# Method in brief: as §1
# [3] = target: GlcNAc(b1-2)Man(a1-3)[GlcNAc(b1-2)Man(a1-6)]Man(b1-4)GlcNAc(b1-4)[Fuc(a1-6)]GlcNAc
# Method in brief: as §1
# [4] = target: GlcNAc(b1-2)Man(a1-3)[GlcNAc(b1-4)][GlcNAc(b1-2)Man(a1-6)]Man(b1-4)GlcNAc(b1-4)GlcNAc
# Method in brief: as §1
# [5] = target: GlcNAc(b1-2)Man(a1-3)[GlcNAc(b1-4)][GlcNAc(b1-2)Man(a1-6)]Man(b1-4)GlcNAc(b1-4)[Fuc(a1-6)]GlcNAc
# Method in brief: as §1
# [6] = target: GlcNAc(b1-2)[GlcNAc(b1-4)]Man(a1-3)[GlcNAc(b1-2)Man(a1-6)]Man(b1-4)GlcNAc(b1-4)GlcNAc
# Method in brief: as §1
# [7] = target: GlcNAc(b1-2)[GlcNAc(b1-4)]Man(a1-3)[GlcNAc(b1-4)][GlcNAc(b1-2)Man(a1-6)]Man(b1-4)GlcNAc(b1-4)GlcNAc
# Method in brief: as §1
# [8] = target: GlcNAc(b1-2)[GlcNAc(b1-4)]Man(a1-3)[GlcNAc(b1-4)][GlcNAc(b1-2)[GlcNAc(b1-6)]Man(a1-6)]Man(b1-4)GlcNAc(b1-4)GlcNAc
# Method in brief: as §1
# [9] = target: GlcNAc(b1-2)[GlcNAc(b1-4)]Man(a1-3)[GlcNAc(b1-4)][GlcNAc(b1-2)[GlcNAc(b1-6)]Man(a1-6)]Man(b1-4)GlcNAc(b1-4)[Fuc(a1-6)]GlcNAc
# Method in brief: as §1
# [10] = target: GlcNAc(b1-2)[GlcNAc(b1-6)]Man(a1-6)[GlcNAc(b1-2)Man(a1-3)]Man(b1-4)GlcNAc(b1-4)GlcNAc
# Method in brief: as §1
# [11] = target: GlcNAc(b1-2)[GlcNAc(b1-6)]Man(a1-6)[GlcNAc(b1-2)Man(a1-3)]Man(b1-4)GlcNAc(b1-4)[Fuc(a1-6)]GlcNAc
# Method in brief: as §1
# [12] = target: GlcNAc(b1-2)[GlcNAc(b1-6)]Man(a1-6)[GlcNAc(b1-4)][GlcNAc(b1-2)Man(a1-3)]Man(b1-4)GlcNAc(b1-4)GlcNAc
# Method in brief: as §1
# GlcNAc(b1-3)Fuc = target: GlcNAc(b1-3)Fuc
# Method in brief: as §1
# GlcNAc(b1-3)Gal = target: GlcNAc(b1-3)Gal
# Method in brief: as §1
# [13] = target: GlcNAc(b1-3)Gal(b1-3)GalNAc
# Method in brief: as §1
# GlcNAc(b1-3)Gal(b1-4)Glc = target: GlcNAc(b1-3)Gal(b1-4)Glc
# Method in brief: as §1
# [14] = target: GlcNAc(b1-3)Gal(b1-4)GlcNAc
# Method in brief: as §1
# [15] = target: GlcNAc(b1-3)Gal(b1-4)GlcNAc(b1-2)Man(a1-3)[GlcNAc(b1-3)Gal(b1-4)GlcNAc(b1-2)Man(a1-6)]Man(b1-4)GlcNAc(b1-4)GlcNAc
# Method in brief: as §1
# [16] = target: GlcNAc(b1-3)Gal(b1-4)GlcNAc(b1-2)Man(a1-3)[GlcNAc(b1-3)Gal(b1-4)GlcNAc(b1-2)Man(a1-6)]Man(b1-4)GlcNAc(b1-4)[Fuc(a1-6)]GlcNAc
# Method in brief: as §1
# [17] = target: GlcNAc(b1-3)Gal(b1-4)GlcNAc(b1-2)[GlcNAc(b1-3)Gal(b1-4)GlcNAc(b1-6)]Man(a1-6)[GlcNAc(b1-3)Gal(b1-4)GlcNAc(b1-2)Man(a1-3)]Man(b1-4)GlcNAc(b1-4)GlcNAc
# Method in brief: as §1
# [18] = target: GlcNAc(b1-3)Gal(b1-4)GlcNAc(b1-3)Gal(b1-4)GlcNAc
# Method in brief: as §1
# [19] = target: GlcNAc(b1-3)Gal(b1-4)GlcNAc(b1-3)Gal(b1-4)GlcNAc(b1-2)Man(a1-3)[GlcNAc(b1-3)Gal(b1-4)GlcNAc(b1-3)Gal(b1-4)GlcNAc(b1-2)Man(a1-6)]Man(b1-4)GlcNAc(b1-4)GlcNAc
# Method in brief: as §1
# [20] = target: GlcNAc(b1-3)Gal(b1-4)GlcNAc(b1-3)Gal(b1-4)GlcNAc(b1-2)Man(a1-3)[GlcNAc(b1-3)Gal(b1-4)GlcNAc(b1-3)Gal(b1-4)GlcNAc(b1-2)Man(a1-6)]Man(b1-4)GlcNAc(b1-4)[Fuc(a1-6)]GlcNAc
# Method in brief: as §1
# [21] = target: GlcNAc(b1-3)Gal(b1-4)GlcNAc(b1-3)Gal(b1-4)GlcNAc(b1-2)[GlcNAc(b1-3)Gal(b1-4)GlcNAc(b1-3)Gal(b1-4)GlcNAc(b1-6)]Man(a1-6)[GlcNAc(b1-3)Gal(b1-4)GlcNAc(b1-3)Gal(b1-4)GlcNAc(b1-2)Man(a1-3)]Man(b1-4)GlcNAc(b1-4)[Fuc(a1-6)]GlcNAc
# Method in brief: as §1
# [22] = target: GlcNAc(b1-3)Gal(b1-4)GlcNAc(b1-3)Gal(b1-4)GlcNAc(b1-3)Gal(b1-4)GlcNAc(b1-2)Man(a1-3)[GlcNAc(b1-3)Gal(b1-4)GlcNAc(b1-3)Gal(b1-4)GlcNAc(b1-3)Gal(b1-4)GlcNAc(b1-2)Man(a1-6)]Man(b1-4)GlcNAc(b1-4)GlcNAc
# Method in brief: as §1
# [23] = target: GlcNAc(b1-3)Gal(b1-4)GlcNAc(b1-3)Gal(b1-4)GlcNAc(b1-3)Gal(b1-4)GlcNAc(b1-2)Man(a1-3)[GlcNAc(b1-3)Gal(b1-4)GlcNAc(b1-3)Gal(b1-4)GlcNAc(b1-3)Gal(b1-4)GlcNAc(b1-2)Man(a1-6)]Man(b1-4)GlcNAc(b1-4)[Fuc(a1-6)]GlcNAc
# Method in brief: as §1
# [24] = target: GlcNAc(b1-3)Gal(b1-4)GlcNAc(b1-3)Gal(b1-4)GlcNAc(b1-3)Gal(b1-4)GlcNAc(b1-2)[GlcNAc(b1-3)Gal(b1-4)GlcNAc(b1-3)Gal(b1-4)GlcNAc(b1-3)Gal(b1-4)GlcNAc(b1-6)]Man(a1-6)[GlcNAc(b1-3)Gal(b1-4)GlcNAc(b1-3)Gal(b1-4)GlcNAc(b1-3)Gal(b1-4)GlcNAc(b1-2)Man(a1-3)]Man(b1-4)GlcNAc(b1-4)[Fuc(a1-6)]GlcNAc
# Method in brief: as §1
# [25] = target: GlcNAc(b1-3)Gal(b1-4)GlcNAc(b1-3)Gal(b1-4)GlcNAc(b1-3)Gal(b1-4)GlcNAc(b1-3)Gal(b1-4)GlcNAc(b1-2)Man(a1-3)[GlcNAc(b1-3)Gal(b1-4)GlcNAc(b1-3)Gal(b1-4)GlcNAc(b1-3)Gal(b1-4)GlcNAc(b1-3)Gal(b1-4)GlcNAc(b1-2)Man(a1-6)]Man(b1-4)GlcNAc(b1-4)GlcNAc
# Method in brief: as §1
# [26] = target: GlcNAc(b1-3)Gal(b1-4)GlcNAc(b1-3)Gal(b1-4)GlcNAc(b1-3)Gal(b1-4)GlcNAc(b1-3)Gal(b1-4)GlcNAc(b1-2)Man(a1-3)[GlcNAc(b1-3)Gal(b1-4)GlcNAc(b1-3)Gal(b1-4)GlcNAc(b1-3)Gal(b1-4)GlcNAc(b1-3)Gal(b1-4)GlcNAc(b1-2)Man(a1-6)]Man(b1-4)GlcNAc(b1-4)[Fuc(a1-6)]GlcNAc
# Method in brief: as §1
# [27] = target: GlcNAc(b1-3)Gal(b1-4)GlcNAc(b1-3)Gal(b1-4)GlcNAc(b1-3)Gal(b1-4)GlcNAc(b1-3)Gal(b1-4)GlcNAc(b1-2)[GlcNAc(b1-3)Gal(b1-4)GlcNAc(b1-3)Gal(b1-4)GlcNAc(b1-3)Gal(b1-4)GlcNAc(b1-3)Gal(b1-4)GlcNAc(b1-6)]Man(a1-6)[GlcNAc(b1-3)Gal(b1-4)GlcNAc(b1-3)Gal(b1-4)GlcNAc(b1-3)Gal(b1-4)GlcNAc(b1-3)Gal(b1-4)GlcNAc(b1-2)Man(a1-3)]Man(b1-4)GlcNAc(b1-4)[Fuc(a1-6)]GlcNAc
# Method in brief: as §1
# [28] = target: GlcNAc(b1-3)Gal(b1-4)GlcNAc(b1-3)Gal(b1-4)GlcNAc(b1-3)GalNAc
# Method in brief: as §1
# [29] = target: GlcNAc(b1-3)Gal(b1-4)GlcNAc(b1-3)GalNAc
# Method in brief: as §1
# [30] = target: GlcNAc(b1-3)Gal(b1-4)GlcNAc(b1-3)[GlcNAc(b1-3)Gal(b1-4)GlcNAc(b1-3)]GalNAc
# Method in brief: as §1
# [31] = target: GlcNAc(b1-3)Gal(b1-4)GlcNAc(b1-6)[Gal(b1-3)]GalNAc
# Method in brief: as §1
# [32] = target: GlcNAc(b1-3)Gal(b1-4)GlcNAc(b1-6)[GlcNAc(b1-3)Gal(b1-3)]GalNAc
# Method in brief: as §1
# [33] = target: GlcNAc(b1-3)Gal(b1-4)GlcNAc(b1-6)[GlcNAc(b1-3)]Gal(b1-4)GlcNAc
# Method in brief: as §1
# GlcNAc(b1-3)GalNAc = target: GlcNAc(b1-3)GalNAc
# Method in brief: as §1
binder,measurement,setting,value
Aap lectin (Staphylococcus epidermidis) (protein) VNLNYSSPFMSLLSMPADSSSNNTKNTIDIPPTTVKGRDNYDFYGRVDIESNPTDLNATNLTRYNYGQPPGTTTAGAVQFKNQVSFDKDFDFNIRVANNRQSNTTGADGWGFMFSKKDGDDFLKNGGILREKGTPSAAGFRIDTGYYNNDPLDKIQKQAGQGYRGYGTFVKNDSQGNTSKVGSGTPSTDFLNYADNTTNDLDGKFHGQKLNNVNLKYNASNQTFTATYAGKTWTATLSELGLSPTDSYNFLVTSS,glycan array binding signal (z-score),[1],-0.754
same,glycan array binding signal (z-score),[2],-0.868
same,glycan array binding signal (z-score),[3],2.72
same,glycan array binding signal (z-score),[4],-0.698
same,glycan array binding signal (z-score),[5],-0.679
same,glycan array binding signal (z-score),[6],0.373
same,glycan array binding signal (z-score),[7],-0.168
same,glycan array binding signal (z-score),[8],-0.694
same,glycan array binding signal (z-score),[9],-0.887
same,glycan array binding signal (z-score),[10],-0.879
same,glycan array binding signal (z-score),[11],0.281
same,glycan array binding signal (z-score),[12],-0.861
same,glycan array binding signal (z-score),GlcNAc(b1-3)Fuc,-0.498
same,glycan array binding signal (z-score),GlcNAc(b1-3)Gal,1.92
same,glycan array binding signal (z-score),[13],-0.342
same,glycan array binding signal (z-score),GlcNAc(b1-3)Gal(b1-4)Glc,0.941
same,glycan array binding signal (z-score),[14],-0.278
same,glycan array binding signal (z-score),[15],0.543
same,glycan array binding signal (z-score),[16],-0.827
same,glycan array binding signal (z-score),[17],-0.884
same,glycan array binding signal (z-score),[18],-0.777
same,glycan array binding signal (z-score),[19],3.83
same,glycan array binding signal (z-score),[20],-0.748
same,glycan array binding signal (z-score),[21],1.52
same,glycan array binding signal (z-score),[22],-0.015
same,glycan array binding signal (z-score),[23],2.52
same,glycan array binding signal (z-score),[24],-0.306
same,glycan array binding signal (z-score),[25],0.789
same,glycan array binding signal (z-score),[26],2.03
same,glycan array binding signal (z-score),[27],1.2
same,glycan array binding signal (z-score),[28],0.235
same,glycan array binding signal (z-score),[29],0.571
same,glycan array binding signal (z-score),[30],1.62
same,glycan array binding signal (z-score),[31],-0.757
same,glycan array binding signal (z-score),[32],-0.968
same,glycan array binding signal (z-score),[33],-0.401
same,glycan array binding signal (z-score),GlcNAc(b1-3)GalNAc,-0.693

# A stretch taken from the entries so far, for reference:
binder,measurement,setting,value
Aap lectin (Staphylococcus epidermidis) (protein) VNLNYSSPFMSLLSMPADSSSNNTKNTIDIPPTTVKGRDNYDFYGRVDIESNPTDLNATNLTRYNYGQPPGTTTAGAVQFKNQVSFDKDFDFNIRVANNRQSNTTGADGWGFMFSKKDGDDFLKNGGILREKGTPSAAGFRIDTGYYNNDPLDKIQKQAGQGYRGYGTFVKNDSQGNTSKVGSGTPSTDFLNYADNTTNDLDGKFHGQKLNNVNLKYNASNQTFTATYAGKTWTATLSELGLSPTDSYNFLVTSS,glycan array binding signal (z-score),[20],-0.748
same,glycan array binding signal (z-score),[21],1.52
same,glycan array binding signal (z-score),[22],-0.015
same,glycan array binding signal (z-score),[23],2.52
same,glycan array binding signal (z-score),[24],-0.306
same,glycan array binding signal (z-score),[25],0.789
same,glycan array binding signal (z-score),[26],2.03
same,glycan array binding signal (z-score),[27],1.2
same,glycan array binding signal (z-score),[28],0.235
same,glycan array binding signal (z-score),[29],0.571
